Results as given in the supplement of paper PMC10849652.
Some of the results follow.

Chains of the proteins cited; added tags and fusions are not shown. Lines headed by an entry give the natural chain unless they say otherwise; changes in a name come on top.
UniProt O95147: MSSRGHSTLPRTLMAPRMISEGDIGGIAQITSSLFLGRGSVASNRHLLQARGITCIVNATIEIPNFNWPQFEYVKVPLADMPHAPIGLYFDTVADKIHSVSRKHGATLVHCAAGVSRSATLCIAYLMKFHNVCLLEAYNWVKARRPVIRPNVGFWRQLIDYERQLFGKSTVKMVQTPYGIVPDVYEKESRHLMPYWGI
UniProt O00559: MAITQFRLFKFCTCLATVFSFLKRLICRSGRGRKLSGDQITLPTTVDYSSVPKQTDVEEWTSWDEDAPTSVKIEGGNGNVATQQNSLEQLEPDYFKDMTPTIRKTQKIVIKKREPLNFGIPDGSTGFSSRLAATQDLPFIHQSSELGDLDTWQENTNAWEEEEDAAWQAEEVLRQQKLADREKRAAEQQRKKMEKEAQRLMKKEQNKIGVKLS
UniProt P30084: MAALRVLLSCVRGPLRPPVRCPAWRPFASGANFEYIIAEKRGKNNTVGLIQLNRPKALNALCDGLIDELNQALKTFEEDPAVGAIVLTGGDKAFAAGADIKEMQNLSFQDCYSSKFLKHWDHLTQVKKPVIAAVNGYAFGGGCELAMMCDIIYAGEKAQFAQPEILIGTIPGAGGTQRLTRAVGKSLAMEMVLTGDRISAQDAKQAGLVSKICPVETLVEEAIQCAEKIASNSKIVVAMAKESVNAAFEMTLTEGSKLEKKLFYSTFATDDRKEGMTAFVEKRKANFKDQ
UniProt P29692: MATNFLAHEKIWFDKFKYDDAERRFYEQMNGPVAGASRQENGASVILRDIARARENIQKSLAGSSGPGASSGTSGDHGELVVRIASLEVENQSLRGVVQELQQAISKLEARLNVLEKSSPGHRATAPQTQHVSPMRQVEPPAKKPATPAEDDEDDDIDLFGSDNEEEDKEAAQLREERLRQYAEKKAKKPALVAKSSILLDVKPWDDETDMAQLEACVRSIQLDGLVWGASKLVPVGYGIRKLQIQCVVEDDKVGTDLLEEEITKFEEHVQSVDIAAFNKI
UniProt Q92997: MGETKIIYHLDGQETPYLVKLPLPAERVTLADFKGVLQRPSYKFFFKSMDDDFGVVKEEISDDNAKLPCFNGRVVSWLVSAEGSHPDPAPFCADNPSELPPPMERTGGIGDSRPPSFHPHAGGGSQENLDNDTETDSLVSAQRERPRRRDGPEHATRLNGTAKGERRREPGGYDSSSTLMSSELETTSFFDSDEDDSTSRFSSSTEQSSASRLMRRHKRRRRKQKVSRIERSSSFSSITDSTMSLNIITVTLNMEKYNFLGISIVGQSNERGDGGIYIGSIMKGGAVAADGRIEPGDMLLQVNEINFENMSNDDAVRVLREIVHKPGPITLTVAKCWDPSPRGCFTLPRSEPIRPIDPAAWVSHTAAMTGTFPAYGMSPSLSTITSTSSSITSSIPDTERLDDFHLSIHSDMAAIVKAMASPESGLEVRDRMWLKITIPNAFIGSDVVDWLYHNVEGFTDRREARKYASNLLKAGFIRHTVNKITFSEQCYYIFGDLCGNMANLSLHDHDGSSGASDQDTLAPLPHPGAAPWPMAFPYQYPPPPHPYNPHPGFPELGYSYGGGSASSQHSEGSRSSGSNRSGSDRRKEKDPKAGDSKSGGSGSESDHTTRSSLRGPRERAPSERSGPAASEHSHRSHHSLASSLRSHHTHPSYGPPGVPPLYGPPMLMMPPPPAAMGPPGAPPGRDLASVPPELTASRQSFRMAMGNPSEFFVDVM
UniProt Q9C005, whole entry, looked up: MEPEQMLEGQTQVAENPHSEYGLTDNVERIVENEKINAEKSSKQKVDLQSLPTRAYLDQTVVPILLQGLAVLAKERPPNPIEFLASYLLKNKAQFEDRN
UniProt Q8NDI1: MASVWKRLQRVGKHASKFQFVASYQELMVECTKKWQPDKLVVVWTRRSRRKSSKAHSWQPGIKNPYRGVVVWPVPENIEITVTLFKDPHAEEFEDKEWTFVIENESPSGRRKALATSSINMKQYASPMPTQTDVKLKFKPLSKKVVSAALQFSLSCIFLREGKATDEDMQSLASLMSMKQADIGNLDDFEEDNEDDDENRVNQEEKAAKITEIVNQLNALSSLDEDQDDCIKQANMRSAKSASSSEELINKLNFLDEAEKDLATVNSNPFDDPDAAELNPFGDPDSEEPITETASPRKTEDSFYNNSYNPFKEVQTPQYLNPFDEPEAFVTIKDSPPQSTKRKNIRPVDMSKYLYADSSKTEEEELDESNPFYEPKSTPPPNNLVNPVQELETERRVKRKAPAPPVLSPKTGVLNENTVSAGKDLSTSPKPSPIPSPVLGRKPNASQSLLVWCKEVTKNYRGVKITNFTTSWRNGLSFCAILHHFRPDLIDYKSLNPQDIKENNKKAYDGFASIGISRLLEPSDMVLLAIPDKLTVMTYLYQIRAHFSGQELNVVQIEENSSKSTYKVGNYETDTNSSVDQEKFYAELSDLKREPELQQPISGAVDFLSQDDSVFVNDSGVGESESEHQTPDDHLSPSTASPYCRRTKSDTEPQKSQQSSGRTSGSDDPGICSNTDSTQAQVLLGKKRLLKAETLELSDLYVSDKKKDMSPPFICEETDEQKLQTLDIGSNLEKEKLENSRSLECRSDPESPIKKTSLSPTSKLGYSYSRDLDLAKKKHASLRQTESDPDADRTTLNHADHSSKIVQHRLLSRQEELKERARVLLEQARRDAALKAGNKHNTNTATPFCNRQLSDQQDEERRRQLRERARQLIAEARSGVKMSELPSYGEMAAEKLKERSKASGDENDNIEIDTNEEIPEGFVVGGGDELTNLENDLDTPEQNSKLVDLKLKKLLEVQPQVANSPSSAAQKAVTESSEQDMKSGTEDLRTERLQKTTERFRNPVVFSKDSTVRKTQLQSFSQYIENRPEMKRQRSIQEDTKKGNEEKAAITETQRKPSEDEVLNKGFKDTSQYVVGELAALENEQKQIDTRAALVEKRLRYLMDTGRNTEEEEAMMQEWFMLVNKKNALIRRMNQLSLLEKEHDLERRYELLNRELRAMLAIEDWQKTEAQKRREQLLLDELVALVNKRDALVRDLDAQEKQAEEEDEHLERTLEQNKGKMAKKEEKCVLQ
UniProt Q99848: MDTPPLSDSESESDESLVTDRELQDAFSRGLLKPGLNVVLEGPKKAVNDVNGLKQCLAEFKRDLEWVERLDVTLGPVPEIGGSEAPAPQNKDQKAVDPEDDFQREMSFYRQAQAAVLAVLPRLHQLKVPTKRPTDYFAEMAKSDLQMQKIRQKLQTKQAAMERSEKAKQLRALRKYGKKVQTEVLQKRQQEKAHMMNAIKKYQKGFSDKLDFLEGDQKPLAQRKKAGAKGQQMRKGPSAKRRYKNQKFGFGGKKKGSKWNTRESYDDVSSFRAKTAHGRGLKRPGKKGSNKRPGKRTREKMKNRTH
UniProt Q9NP97, whole entry, looked up: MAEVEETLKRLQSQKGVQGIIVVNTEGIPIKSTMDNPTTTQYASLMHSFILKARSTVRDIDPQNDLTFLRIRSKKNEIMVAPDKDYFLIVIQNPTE
UniProt Q86TI2: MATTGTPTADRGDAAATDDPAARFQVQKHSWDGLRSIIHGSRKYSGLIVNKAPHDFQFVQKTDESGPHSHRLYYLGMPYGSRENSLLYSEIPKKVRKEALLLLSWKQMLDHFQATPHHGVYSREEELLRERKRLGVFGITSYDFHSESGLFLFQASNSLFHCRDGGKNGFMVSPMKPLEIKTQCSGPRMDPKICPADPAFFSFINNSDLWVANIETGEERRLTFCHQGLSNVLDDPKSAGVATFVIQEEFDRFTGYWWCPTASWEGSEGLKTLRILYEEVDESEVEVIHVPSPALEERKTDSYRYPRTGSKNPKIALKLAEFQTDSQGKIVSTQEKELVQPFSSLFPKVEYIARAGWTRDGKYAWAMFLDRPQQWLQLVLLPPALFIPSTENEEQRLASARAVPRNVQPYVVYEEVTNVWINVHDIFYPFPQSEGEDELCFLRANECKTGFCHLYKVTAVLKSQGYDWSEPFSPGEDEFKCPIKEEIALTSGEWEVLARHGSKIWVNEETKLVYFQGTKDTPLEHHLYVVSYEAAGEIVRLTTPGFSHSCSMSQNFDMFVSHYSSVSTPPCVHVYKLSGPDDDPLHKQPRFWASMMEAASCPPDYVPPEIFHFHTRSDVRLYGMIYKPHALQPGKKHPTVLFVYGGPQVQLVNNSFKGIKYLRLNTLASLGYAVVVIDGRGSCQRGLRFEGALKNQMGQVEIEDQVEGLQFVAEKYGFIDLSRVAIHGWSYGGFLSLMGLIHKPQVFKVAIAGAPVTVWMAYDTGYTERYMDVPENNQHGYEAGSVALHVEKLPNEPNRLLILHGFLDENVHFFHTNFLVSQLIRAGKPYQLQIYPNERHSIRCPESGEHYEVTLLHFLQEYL
UniProt O77932: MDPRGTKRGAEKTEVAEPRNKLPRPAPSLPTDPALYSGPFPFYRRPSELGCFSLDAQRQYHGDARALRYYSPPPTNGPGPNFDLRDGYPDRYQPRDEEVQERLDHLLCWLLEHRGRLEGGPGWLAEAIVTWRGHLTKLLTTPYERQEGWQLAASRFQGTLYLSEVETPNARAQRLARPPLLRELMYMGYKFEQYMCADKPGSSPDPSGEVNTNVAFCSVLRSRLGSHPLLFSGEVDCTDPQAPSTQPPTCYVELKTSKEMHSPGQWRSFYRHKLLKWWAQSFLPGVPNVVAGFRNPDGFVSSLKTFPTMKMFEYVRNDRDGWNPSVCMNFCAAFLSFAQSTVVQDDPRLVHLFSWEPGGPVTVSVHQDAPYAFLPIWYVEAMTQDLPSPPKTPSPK
UniProt Q92782, whole entry, looked up: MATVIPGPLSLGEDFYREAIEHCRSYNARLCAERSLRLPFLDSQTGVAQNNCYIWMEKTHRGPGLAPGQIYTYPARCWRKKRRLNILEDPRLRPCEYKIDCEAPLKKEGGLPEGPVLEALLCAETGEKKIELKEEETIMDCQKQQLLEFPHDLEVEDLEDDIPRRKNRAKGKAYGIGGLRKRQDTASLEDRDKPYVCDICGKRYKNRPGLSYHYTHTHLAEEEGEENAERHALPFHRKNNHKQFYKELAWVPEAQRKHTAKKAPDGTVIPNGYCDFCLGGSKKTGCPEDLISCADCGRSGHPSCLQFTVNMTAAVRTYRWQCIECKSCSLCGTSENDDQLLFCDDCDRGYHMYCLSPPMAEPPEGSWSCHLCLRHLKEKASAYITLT

Tests used:
Test in all cases: log2 fold change, soluble protein after heating vs DMSO (PISA); higher = thermal stabilisation; K562 lysate, 10 uM; active = over 0.2 and 3.5 SD of the protein, either way, in both replicates (recomputed)
vemurafenib = compound: CCCS(=O)(=O)Nc1ccc(F)c(C(=O)c2c[nH]c3ncc(-c4ccc(Cl)cc4)cc23)c1F [vemurafenib]
In short: (§1)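 A 30 min treatment with 10 μM compound was applied to crude K562 extract at 1 mg/mL protein in PBS pH 7.4 with 1 mM MgCl2. Heating for 3 min spanned 48°C-58°C, after which aliquots were pooled, adjusted to 0.5% NP-40 at 4°C and spun at 21,000xg for 90 min. TMTpro 16plex LC-MS/MS of the supernatant, with channel sums equalised, gave values recorded as log-two fold change in thermal stability against solvent controls, from duplicates.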

[1] = compound: CCCS(=O)(=O)Nc1ccc(F)c(C(=O)c2c[nH]c3ncc(Cl)cc23)c1F
In short: as §1

[2] = compound: CC[C@@H]1C(=O)N(C)c2cnc(Nc3ccc(C(=O)NC4CCN(C)CC4)cc3OC)nc2N1C1CCCC1
In short: as §1

volasertib = compound: CC[C@@H]1C(=O)N(C)c2cnc(Nc3ccc(C(=O)N[C@H]4CC[C@H](N5CCN(CC6CC6)CC5)CC4)cc3OC)nc2N1C(C)C [volasertib]
In short: as §1

[3] = compound: CCn1cc(-c2ccnc3[nH]c(-c4cccc(CN(C)C)c4)cc23)c(-c2ccc(NC(=O)N(C)C)cc2)n1
In short: as §1

[4] = compound: CN1CCC(CNc2ccc3ncc(-c4cccc(OC(F)(F)F)c4)n3n2)CC1
In short: as §1

saracatinib = compound: CN1CCN(CCOc2cc(OC3CCOCC3)c3c(Nc4c(Cl)ccc5c4OCO5)ncnc3c2)CC1 [saracatinib]
In short: as §1

alvocidib = compound: CN1CC[C@H](c2c(O)cc(O)c3c(=O)cc(-c4ccccc4Cl)oc23)[C@H](O)C1 [alvocidib]
In short: as §1

[5] = compound: CNC(=O)C1=CC=CC=C1NC2=NC(=NC=C2Cl)NC3=C(C=C(C=C3)N4CCOCC4)OC
In short: as §1

defactinib = compound: CNC(=O)c1ccc(Nc2ncc(C(F)(F)F)c(NCc3nccnc3N(C)S(C)(=O)=O)n2)cc1 [defactinib]
In short: as §1

[6] = compound: CNc1nc(-c2ccc3c(N)n[nH]c3c2)cc(N2C[C@@H](C(=O)NC3CCCCC3)CC[C@H]2C)n1
In short: as §1

encorafenib = compound: COC(=O)N[C@@H](C)CNc1nccc(-c2cn(C(C)C)nc2-c2cc(Cl)cc(NS(C)(=O)=O)c2F)n1 [encorafenib]
In short: as §1

[7] = compound: COC(=O)[C@H](CCSC)NC(=O)C1=C(C=C(C=C1)NC[C@H](CS)N)C2=CC=CC=C2
In short: as §1

[8] = compound: COc1cc2nc(-c3cc(F)ccc3O)nc(N[C@@H]3CNC[C@H]3C(C)(C)O)c2cc1OC
In short: as §1

barasertib = compound: CCN(CCCOc1ccc2c(Nc3cc(CC(=O)Nc4cccc(F)c4)[nH]n3)ncnc2c1)CCOP(=O)(O)O [barasertib]
In short: as §1

[9] = compound: CCn1c(C(=O)N(C2CC2)C2CC2)cc2c3c(ncn3C)c(Nc3cc(C)n(C)n3)nc21
In short: as §1

sotrastaurin = compound: CN1CCN(c2nc(C3=C(c4c[nH]c5ccccc45)C(=O)NC3=O)c3ccccc3n2)CC1 [sotrastaurin]
In short: as §1

Tubastatin A = compound: CN1CCc2c(c3ccccc3n2Cc2ccc(C(=O)NO)cc2)C1 [Tubastatin A]
In short: as §1

alisertib = compound: COc1cc(Nc2ncc3c(n2)-c2ccc(Cl)cc2C(c2c(F)cccc2OC)=NC3)ccc1C(=O)O [alisertib]
In short: as §1

gefitinib = compound: COc1cc2ncnc(Nc3ccc(F)c(Cl)c3)c2cc1OCCCN1CCOCC1 [gefitinib]
In short: as §1

Measured: log2 fold change

DUSP14 (UniProt O95147)
inactive: vemurafenib 0.057 | [1] -0.072 | [2] -0.01 | volasertib 0.056 | [3] -0.093 | [4] 0.098 | saracatinib 0.026 | alvocidib 0.022 | [5] 0.171 | defactinib 0.077 | [6] 0.1 | encorafenib 0.163 | [7] 0.061 | [8] 0.025

EBAG9 isoform 2 (UniProt O00559)
inactive: vemurafenib -0.031 | [1] 0.04 | barasertib 0.018 | [2] 0.09 | volasertib 0.043 | [9] -0.065 | [3] -0.098 | [4] 0.181 | saracatinib 0.12 | sotrastaurin -0.026 | alvocidib 0.032 | Tubastatin A 0.022 | [5] 0.047 | defactinib 0.001 | [6] -0.032 | encorafenib -0.006 | [7] -0.02 | alisertib -0.053 | [8] 0.02 | gefitinib -0.033

ECHS1 (UniProt P30084)
inactive: vemurafenib 0.008 | [1] 0.057 | barasertib -0.005 | [2] -0.047 | volasertib 0 | [9] 0.014 | [3] -0.009 | [4] -0.027 | saracatinib -0.002 | sotrastaurin 0.011 | alvocidib 0.031 | Tubastatin A -0.017 | [5] 0.015 | defactinib 0.012 | [6] -0.021 | encorafenib -0.046 | [7] 0.035 | alisertib -0.008 | [8] 0.008 | gefitinib -0.011

EEF1D isoform 2 (UniProt P29692)
inactive: vemurafenib 0.018 | [1] -0.001 | barasertib -0.047 | [2] -0.011 | volasertib 0.005 | [9] -0.007 | [3] -0.05 | [4] 0.06 | saracatinib 0.011 | sotrastaurin -0.007 | alvocidib -0.038 | Tubastatin A 0.021 | [5] -0.052 | defactinib -0.061 | [6] -0.001 | encorafenib 0.001 | [7] 0.049 | alisertib 0.039 | [8] -0.003 | gefitinib 0.005

DRAP1 (UniProt E9PQX9)
inactive: vemurafenib -0.026 | [1] -0.016 | barasertib 0.068 | [2] -0.011 | volasertib 0.005 | [3] -0.078 | [4] 0.038 | saracatinib 0.179 | alvocidib 0.052 | defactinib -0.102 | [6] 0.188 | encorafenib 0.188 | [7] 0.003 | [8] 0.056

DTX3L (UniProt Q8TDB6)
inactive: vemurafenib 0.117 | barasertib 0.142 | [2] 0.004 | [9] 0.057 | [3] 0.116 | [4] 0.008 | saracatinib 0.043 | sotrastaurin 0.021 | alvocidib 0.05 | Tubastatin A 0.008 | [5] 0.076 | defactinib 0.101 | [6] 0.041 | encorafenib 0.03 | [7] 0.233

DVL3 (UniProt Q92997)
inactive: vemurafenib 0.309 | [1] 0.113 | barasertib 0.083 | [2] 0.069 | volasertib -0.064 | [9] -0.012 | [3] -0.252 | [4] -0.019 | sotrastaurin -0.047 | alvocidib -0.156 | Tubastatin A -0.277 | [5] 0 | defactinib -0.203 | encorafenib 0.143 | [7] -0.078 | alisertib -0.02 | [8] 0.021 | gefitinib 0.015

DPY30 (UniProt Q9C005)
inactive: vemurafenib -0.069 | [1] -0.022 | [2] 0.033 | volasertib 0.068 | [9] 0.041 | [3] 0 | [4] -0.035 | saracatinib 0.005 | sotrastaurin 0.062 | alvocidib 0.258 | Tubastatin A 0.054 | [5] 0.08 | defactinib 0.171 | [6] 0.028 | encorafenib -0.02 | [7] 0.049 | alisertib -0.14 | [8] -0.149 | gefitinib -0.307

EHBP1 isoform 2 (UniProt Q8NDI1)
inactive: vemurafenib 0.117 | [1] 0 | barasertib 0.058 | [2] 0.067 | volasertib -0.015 | [9] -0.085 | [3] 0.084 | [4] -0.034 | saracatinib 0.045 | sotrastaurin 0.046 | alvocidib -0.023 | Tubastatin A 0.027 | [5] 0.03 | defactinib -0.016 | [6] 0.01 | encorafenib 0.023 | [7] 0.016 | alisertib 0.012 | [8] -0.005 | gefitinib 0.044

EBNA1BP2 (UniProt Q99848)
inactive: vemurafenib -0.014 | [1] 0.011 | barasertib -0.005 | [2] 0.023 | volasertib -0.02 | [9] -0.006 | [3] -0.038 | [4] -0.001 | saracatinib 0.017 | sotrastaurin -0.018 | alvocidib 0.011 | Tubastatin A -0.003 | [5] -0.011 | defactinib 0.019 | [6] 0.006 | encorafenib 0.018 | [7] -0.021 | alisertib -0.01 | [8] 0.007 | gefitinib -0.027

DYNLRB1 (UniProt Q9NP97)
inactive: vemurafenib 0 | [1] -0.03 | barasertib 0.082 | [2] 0.055 | volasertib 0.016 | [9] -0.015 | [3] -0.075 | [4] -0.071 | saracatinib 0.017 | sotrastaurin -0.004 | alvocidib 0.097 | Tubastatin A 0.122 | [5] 0.017 | defactinib 0.129 | [6] 0.075 | encorafenib 0.005 | [7] 0.039 | alisertib 0.007 | [8] -0.032 | gefitinib -0.142

DPP9 isoform 2 (UniProt Q86TI2)
inactive: vemurafenib -0.001 | [1] -0.014 | barasertib 0.031 | [2] -0.03 | volasertib -0.031 | [9] -0.002 | [3] -0.046 | [4] 0.015 | saracatinib -0.018 | sotrastaurin 0.016 | alvocidib 0.004 | Tubastatin A -0.013 | [5] 0.013 | defactinib 0.028 | [6] -0.014 | encorafenib 0 | [7] 0.029 | alisertib -0.029 | [8] 0.009 | gefitinib -0.015

DXO (UniProt O77932)
inactive: vemurafenib -0.064 | [1] 0.028 | barasertib -0.005 | [2] -0.001 | volasertib -0.049 | [9] 0.089 | [3] 0.01 | [4] 0.015 | saracatinib -0.006 | sotrastaurin -0.064 | alvocidib 0 | Tubastatin A 0.012 | [5] 0.008 | defactinib -0.022 | [6] -0.072 | encorafenib 0.068 | [7] -0.059 | alisertib -0.023 | [8] 0.007 | gefitinib -0.024

Quoted from the results shown (2 entries):
DYNLRB1 (UniProt Q9NP97)
inactive: vemurafenib 0 | [1] -0.03 | barasertib 0.082 | [2] 0.055 | volasertib 0.016 | [9] -0.015 | [3] -0.075 | [4] -0.071 | saracatinib 0.017 | sotrastaurin -0.004 | alvocidib 0.097 | Tubastatin A 0.122 | [5] 0.017 | defactinib 0.129 | [6] 0.075 | encorafenib 0.005 | [7] 0.039 | alisertib 0.007 | [8] -0.032 | gefitinib -0.142

DPP9 isoform 2 (UniProt Q86TI2)
inactive: vemurafenib -0.001 | [1] -0.014 | barasertib 0.031 | [2] -0.03 | volasertib -0.031 | [9] -0.002 | [3] -0.046 | [4] 0.015 | saracatinib -0.018 | sotrastaurin 0.016 | alvocidib 0.004 | Tubastatin A -0.013 | [5] 0.013 | defactinib 0.028 | [6] -0.014 | encorafenib 0 | [7] 0.029 | alisertib -0.029 | [8] 0.009 | gefitinib -0.015

Going on with the list.

DPF1 isoform 2 (UniProt Q92782)
inactive: vemurafenib 0.066 | [1] 0.038 | barasertib 0.041 | [2] 0.07 | volasertib -0.109 | [9] 0.017 | saracatinib 0.047 | sotrastaurin -0.047 | Tubastatin A 0.056 | [5] 0.023 | defactinib 0.165 | [6] -0.005 | encorafenib 0.069 | [7] 0.004 | [8] -0.17
